Plain letter strings leave the end groups untold.
Assay: general procedure: Fmoc solid-phase peptide synthesis
Settings: whole synthesis, area percentage of major peak

Sequence: RRWCFRVCYRGFCYRKCR
- purity (crude or final not stated): 96.91%

Reference: article PMC10675526 (Pharmaceutics, 2023)
